For at least one entry, the source does not settle the construct or the ends of the probe. Results from cells or extracts need not show a direct contact. Where a protein sequence is shown, tags need not be part of it.
Biological target: T1, NRF-1 in MCF-7 nuclear extract (UniProt Q16656)
T1 sequence (looked up, limits assumed): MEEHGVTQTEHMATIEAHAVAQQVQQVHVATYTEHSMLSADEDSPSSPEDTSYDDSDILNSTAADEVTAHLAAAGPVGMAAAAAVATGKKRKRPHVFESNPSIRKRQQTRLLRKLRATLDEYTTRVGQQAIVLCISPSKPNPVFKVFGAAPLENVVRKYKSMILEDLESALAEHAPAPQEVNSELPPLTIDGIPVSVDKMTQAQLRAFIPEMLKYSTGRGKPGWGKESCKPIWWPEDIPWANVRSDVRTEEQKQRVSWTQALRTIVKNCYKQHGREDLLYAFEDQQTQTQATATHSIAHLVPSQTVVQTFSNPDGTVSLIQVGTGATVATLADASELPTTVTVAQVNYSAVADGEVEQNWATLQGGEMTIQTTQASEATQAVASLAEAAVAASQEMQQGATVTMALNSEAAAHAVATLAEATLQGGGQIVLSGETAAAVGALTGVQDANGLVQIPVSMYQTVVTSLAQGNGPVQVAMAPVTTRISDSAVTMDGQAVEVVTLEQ
Test: EMSA supershift
Details: anti-NRF-1; 25 mM HEPES pH 7.6, 5 mM MgCl2, 34 mM KCl, 50 ug/mL poly dI:dC, 0.5 mg/mL BSA, on ice 15 min; 6% acrylamide 0.25x TBE gel; protein in an extract; label: 32P

CTGCTGCGCAGGCGCCGGGC (double strand) [mT5]
binding result: binds

CTGTCGCGCAGGCGCCGGGC (double strand) [mT4]
binding result: binds

— paper PMC3127848, “Decreased expression of BRCA1 in SK-BR-3 cells is the result of aberrant activation of the GABP Beta promoter by an NRF-1-containing complex”
